According to the supplement of paper PMC10849652:
The other results are listed elsewhere or left out.

Chains of the proteins cited; added tags and fusions are not shown. Lines headed by an entry give the natural chain unless they say otherwise; changes in a name come on top.
UniProt Q6ZWT7: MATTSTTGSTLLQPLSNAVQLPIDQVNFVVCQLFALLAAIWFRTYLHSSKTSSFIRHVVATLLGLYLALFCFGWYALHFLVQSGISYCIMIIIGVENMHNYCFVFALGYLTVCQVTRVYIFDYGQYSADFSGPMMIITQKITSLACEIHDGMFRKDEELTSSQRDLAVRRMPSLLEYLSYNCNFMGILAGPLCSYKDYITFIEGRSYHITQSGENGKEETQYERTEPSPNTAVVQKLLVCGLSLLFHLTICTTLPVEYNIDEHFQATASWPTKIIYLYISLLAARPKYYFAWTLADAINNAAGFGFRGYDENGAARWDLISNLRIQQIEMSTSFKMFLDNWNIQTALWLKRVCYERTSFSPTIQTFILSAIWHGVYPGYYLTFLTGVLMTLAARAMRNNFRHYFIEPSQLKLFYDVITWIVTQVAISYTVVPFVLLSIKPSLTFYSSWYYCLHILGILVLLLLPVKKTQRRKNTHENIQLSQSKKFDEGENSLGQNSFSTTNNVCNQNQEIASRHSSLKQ
UniProt Q9BTE3: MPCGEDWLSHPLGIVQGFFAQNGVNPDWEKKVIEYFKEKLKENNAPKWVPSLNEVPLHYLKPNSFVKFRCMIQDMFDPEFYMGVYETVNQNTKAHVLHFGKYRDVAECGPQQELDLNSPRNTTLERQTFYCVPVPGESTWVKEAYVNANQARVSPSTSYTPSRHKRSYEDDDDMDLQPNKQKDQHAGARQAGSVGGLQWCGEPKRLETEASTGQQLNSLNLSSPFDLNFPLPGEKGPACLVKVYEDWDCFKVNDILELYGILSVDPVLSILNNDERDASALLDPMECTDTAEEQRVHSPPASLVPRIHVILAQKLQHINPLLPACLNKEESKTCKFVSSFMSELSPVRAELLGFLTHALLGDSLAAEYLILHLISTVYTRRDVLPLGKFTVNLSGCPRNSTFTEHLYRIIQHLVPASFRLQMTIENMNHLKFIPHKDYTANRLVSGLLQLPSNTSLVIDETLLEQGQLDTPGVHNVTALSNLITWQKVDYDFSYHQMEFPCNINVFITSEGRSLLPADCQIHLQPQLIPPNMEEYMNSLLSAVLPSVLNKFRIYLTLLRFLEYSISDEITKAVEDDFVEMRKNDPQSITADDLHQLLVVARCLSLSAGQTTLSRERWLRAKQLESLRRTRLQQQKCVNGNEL
UniProt Q96GW9: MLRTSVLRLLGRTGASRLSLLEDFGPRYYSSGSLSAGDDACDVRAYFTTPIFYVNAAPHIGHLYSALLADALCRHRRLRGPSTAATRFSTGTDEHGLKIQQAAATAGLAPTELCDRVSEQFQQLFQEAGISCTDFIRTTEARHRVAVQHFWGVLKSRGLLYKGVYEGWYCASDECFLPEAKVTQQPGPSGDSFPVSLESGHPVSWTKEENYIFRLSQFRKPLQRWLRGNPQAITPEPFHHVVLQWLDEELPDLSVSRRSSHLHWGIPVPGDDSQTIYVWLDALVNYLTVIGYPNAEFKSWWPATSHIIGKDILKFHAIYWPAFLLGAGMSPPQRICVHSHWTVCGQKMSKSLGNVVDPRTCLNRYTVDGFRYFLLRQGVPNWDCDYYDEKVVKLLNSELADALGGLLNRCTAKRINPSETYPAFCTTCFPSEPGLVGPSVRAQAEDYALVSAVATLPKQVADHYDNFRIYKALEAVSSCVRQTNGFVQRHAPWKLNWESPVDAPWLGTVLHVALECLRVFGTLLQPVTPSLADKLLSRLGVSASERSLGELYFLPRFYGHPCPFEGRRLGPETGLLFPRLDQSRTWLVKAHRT
UniProt P61244, whole entry, looked up: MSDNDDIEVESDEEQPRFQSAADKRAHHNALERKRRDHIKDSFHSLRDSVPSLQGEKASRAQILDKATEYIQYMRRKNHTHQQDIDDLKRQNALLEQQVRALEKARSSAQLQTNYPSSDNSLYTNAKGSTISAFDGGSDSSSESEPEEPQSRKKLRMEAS
UniProt Q9HCE5: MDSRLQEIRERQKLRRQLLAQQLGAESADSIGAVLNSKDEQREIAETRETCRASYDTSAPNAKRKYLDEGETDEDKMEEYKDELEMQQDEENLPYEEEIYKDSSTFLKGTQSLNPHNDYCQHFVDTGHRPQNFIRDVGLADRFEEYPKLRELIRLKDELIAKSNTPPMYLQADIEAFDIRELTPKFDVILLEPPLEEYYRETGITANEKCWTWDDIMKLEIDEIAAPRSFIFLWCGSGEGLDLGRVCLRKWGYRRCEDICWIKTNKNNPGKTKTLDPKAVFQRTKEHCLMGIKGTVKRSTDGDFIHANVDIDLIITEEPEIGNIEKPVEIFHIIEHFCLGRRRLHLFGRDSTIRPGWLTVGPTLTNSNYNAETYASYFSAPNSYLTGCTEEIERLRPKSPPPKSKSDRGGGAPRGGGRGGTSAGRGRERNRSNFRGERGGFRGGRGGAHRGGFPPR
UniProt Q8IWA4: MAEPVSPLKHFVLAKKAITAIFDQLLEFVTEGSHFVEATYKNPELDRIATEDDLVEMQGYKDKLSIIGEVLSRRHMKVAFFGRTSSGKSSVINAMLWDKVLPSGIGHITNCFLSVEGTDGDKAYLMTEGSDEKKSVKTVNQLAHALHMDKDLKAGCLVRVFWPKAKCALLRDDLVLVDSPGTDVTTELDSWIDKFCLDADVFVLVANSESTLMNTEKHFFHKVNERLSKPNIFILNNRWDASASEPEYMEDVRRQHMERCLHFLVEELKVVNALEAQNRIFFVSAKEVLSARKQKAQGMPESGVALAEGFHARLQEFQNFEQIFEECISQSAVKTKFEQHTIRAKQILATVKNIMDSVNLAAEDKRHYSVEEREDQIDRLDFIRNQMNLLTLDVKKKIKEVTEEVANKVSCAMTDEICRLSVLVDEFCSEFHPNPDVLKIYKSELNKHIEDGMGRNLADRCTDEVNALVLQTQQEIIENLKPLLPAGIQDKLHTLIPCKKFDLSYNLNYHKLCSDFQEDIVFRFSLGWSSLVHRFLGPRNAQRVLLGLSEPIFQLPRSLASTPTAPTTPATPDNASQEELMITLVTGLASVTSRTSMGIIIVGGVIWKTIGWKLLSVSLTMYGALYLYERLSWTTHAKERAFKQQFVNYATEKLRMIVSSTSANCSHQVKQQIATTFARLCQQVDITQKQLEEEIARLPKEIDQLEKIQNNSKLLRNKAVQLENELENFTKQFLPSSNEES
UniProt Q9Y2X0: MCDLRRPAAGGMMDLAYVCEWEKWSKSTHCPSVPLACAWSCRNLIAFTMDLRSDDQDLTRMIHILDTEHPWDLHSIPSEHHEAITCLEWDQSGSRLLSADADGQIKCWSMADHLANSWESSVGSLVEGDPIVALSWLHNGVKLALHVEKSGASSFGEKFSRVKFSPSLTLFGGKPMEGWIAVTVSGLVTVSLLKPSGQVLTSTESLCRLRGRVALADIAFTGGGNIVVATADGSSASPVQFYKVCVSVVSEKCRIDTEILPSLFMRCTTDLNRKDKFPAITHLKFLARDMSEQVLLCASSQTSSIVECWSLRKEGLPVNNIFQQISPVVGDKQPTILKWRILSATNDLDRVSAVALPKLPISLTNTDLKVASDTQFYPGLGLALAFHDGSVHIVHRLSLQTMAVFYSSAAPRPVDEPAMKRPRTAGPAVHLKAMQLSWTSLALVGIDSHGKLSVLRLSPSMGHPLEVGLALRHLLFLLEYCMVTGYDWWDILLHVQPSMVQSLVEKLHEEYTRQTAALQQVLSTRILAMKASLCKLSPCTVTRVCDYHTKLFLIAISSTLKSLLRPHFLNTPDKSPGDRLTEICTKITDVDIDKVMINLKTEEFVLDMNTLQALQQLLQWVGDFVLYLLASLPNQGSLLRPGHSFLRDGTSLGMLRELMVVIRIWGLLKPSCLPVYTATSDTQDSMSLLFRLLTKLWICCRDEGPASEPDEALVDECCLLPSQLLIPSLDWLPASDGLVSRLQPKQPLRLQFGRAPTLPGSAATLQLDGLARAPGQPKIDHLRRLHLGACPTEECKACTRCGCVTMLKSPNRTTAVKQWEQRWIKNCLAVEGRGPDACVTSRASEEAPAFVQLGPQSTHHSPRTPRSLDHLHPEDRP
UniProt Q96AQ8: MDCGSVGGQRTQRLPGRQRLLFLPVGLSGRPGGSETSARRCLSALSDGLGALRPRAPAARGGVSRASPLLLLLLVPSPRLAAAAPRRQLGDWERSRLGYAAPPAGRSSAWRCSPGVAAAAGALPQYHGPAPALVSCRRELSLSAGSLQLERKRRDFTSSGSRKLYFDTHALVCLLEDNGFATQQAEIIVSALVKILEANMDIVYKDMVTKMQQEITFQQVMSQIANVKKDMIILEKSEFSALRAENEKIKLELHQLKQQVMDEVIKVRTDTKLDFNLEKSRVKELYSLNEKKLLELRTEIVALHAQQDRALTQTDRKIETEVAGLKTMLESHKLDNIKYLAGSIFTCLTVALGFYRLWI
UniProt Q15528: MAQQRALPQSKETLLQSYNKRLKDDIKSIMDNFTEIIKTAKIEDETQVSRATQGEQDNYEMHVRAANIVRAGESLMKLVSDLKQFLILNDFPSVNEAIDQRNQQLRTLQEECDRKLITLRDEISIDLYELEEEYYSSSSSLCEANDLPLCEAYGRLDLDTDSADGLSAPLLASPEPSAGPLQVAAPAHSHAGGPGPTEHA
UniProt P23368: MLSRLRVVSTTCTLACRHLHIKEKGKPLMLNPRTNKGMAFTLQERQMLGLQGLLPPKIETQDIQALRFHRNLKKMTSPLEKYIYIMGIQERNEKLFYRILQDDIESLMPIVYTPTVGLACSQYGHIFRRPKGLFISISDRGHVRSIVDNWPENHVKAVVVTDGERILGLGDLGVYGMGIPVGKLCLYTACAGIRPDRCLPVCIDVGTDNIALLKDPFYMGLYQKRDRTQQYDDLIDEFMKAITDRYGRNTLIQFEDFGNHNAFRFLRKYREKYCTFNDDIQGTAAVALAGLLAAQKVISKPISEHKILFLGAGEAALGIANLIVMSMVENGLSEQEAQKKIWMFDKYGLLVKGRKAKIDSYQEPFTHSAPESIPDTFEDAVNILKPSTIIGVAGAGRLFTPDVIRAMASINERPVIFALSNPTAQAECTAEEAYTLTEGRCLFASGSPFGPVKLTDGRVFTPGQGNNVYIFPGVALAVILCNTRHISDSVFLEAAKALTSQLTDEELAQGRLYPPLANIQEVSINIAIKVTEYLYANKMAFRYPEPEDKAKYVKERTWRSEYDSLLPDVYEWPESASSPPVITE
UniProt O43513: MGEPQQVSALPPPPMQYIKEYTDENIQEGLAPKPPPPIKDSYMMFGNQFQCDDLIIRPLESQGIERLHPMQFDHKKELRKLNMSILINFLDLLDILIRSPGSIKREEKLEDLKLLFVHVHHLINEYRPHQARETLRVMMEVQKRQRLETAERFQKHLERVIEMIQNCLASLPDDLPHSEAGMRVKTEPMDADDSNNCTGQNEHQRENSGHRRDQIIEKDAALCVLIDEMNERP
UniProt P43243: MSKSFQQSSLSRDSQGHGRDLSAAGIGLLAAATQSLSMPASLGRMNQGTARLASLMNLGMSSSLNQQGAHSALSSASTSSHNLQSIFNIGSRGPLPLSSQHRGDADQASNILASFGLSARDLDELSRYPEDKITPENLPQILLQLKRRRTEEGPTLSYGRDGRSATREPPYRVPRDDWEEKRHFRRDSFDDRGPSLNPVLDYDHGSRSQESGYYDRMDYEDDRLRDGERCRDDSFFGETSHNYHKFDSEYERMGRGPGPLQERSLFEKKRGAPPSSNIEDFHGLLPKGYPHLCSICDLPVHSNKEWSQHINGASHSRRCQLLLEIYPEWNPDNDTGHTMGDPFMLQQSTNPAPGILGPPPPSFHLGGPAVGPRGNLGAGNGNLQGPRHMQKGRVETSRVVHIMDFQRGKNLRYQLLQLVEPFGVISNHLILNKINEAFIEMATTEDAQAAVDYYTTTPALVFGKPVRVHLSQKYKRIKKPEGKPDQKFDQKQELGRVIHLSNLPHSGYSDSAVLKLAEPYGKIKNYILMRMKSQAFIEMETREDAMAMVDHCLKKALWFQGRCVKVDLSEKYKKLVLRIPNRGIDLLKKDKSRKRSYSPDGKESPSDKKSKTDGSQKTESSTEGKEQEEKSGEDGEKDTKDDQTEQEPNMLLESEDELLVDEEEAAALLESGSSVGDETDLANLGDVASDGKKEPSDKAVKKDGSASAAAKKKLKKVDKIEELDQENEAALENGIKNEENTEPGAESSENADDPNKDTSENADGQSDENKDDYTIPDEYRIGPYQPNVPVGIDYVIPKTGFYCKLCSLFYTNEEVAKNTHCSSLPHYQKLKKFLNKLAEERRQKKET
UniProt Q96PE7: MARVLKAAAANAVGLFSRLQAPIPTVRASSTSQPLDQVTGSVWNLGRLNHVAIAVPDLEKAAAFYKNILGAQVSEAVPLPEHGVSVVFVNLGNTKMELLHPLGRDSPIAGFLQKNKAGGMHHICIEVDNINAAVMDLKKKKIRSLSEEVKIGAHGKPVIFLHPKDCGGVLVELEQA

Tests used:
Experiment in all cases: log2 fold change, soluble protein after heating vs DMSO (PISA); higher = thermal stabilisation; K562 cells, 10 uM, 30 min; active = over 0.2 and 3.5 SD of the protein, either way, in both replicates (recomputed)
[1] = compound: CS(=O)(=O)c1ccc(-c2cnc(N)c(C(=O)Nc3ccccc3)n2)cc1
Summary of the method: (§1)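 K562 cells at 2×10^6 cells/mL were treated with 10 μM compound for 30 min. Aliquots were heated for 3 min across 48°C-58°C, pooled, and extracted in PBS with 0.5% NP-40 at 4°C; soluble protein was the supernatant after 21,000xg for 90 min. Soluble protein was quantified by TMTpro 16plex LC-MS/MS with channel sums equalised, and reported as log2 fold change in thermal stability against DMSO controls, with values from duplicates.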

crizotinib = compound: C[C@@H](Oc1cc(-c2cnn(C3CCNCC3)c2)cnc1N)c1c(Cl)ccc(F)c1Cl [crizotinib]
Summary of the method: as §1

[2] = compound: C[C@@H]1COCCN1C2=NC(=NC(=C2)C3(CC3)S(=O)(=O)C)C4=C5C=CNC5=CC=C4
Summary of the method: as §1

[3] = compound: C[C@H](C1=CC=C(C=C1)C(=O)NC2=C3C=CNC3=NC=C2)N
Summary of the method: as §1

duvelisib = compound: C[C@H](Nc1ncnc2nc[nH]c12)c1cc2cccc(Cl)c2c(=O)n1-c1ccccc1 [duvelisib]
Summary of the method: as §1

gandotinib = compound: Cc1cc(Nc2cc(CN3CCOCC3)c3nc(C)c(Cc4ccc(Cl)cc4F)n3n2)n[nH]1 [gandotinib]
Summary of the method: as §1

tozasertib = compound: Cc1cc(Nc2cc(N3CCN(C)CC3)nc(Sc3ccc(NC(=O)C4CC4)cc3)n2)n[nH]1 [tozasertib]
Summary of the method: as §1

[4] = compound: Cc1cc(SCc2sc(-c3ccc(C(F)(F)F)cc3)nc2C)ccc1OCC(=O)O
Summary of the method: as §1

doramapimod = compound: Cc1ccc(-n2nc(C(C)(C)C)cc2NC(=O)Nc2ccc(OCCN3CCOCC3)c3ccccc23)cc1 [doramapimod]
Summary of the method: as §1

ispinesib = compound: Cc1ccc(C(=O)N(CCCN)[C@@H](c2nc3cc(Cl)ccc3c(=O)n2Cc2ccccc2)C(C)C)cc1 [ispinesib]
Summary of the method: as §1

bafetinib = compound: Cc1ccc(NC(=O)c2ccc(CN3CC[C@H](N(C)C)C3)c(C(F)(F)F)c2)cc1Nc1nccc(-c2cncnc2)n1 [bafetinib]
Summary of the method: as §1

[5] = compound: Cc1cccc(CC(=O)N2CCc3c2ccc(-c2cn(C)c4ncnc(N)c24)c3F)n1
Summary of the method: as §1

nilotinib = compound: Cc1cn(-c2cc(NC(=O)c3ccc(C)c(Nc4nccc(-c5cccnc5)n4)c3)cc(C(F)(F)F)c2)cn1 [nilotinib]
Summary of the method: as §1

[6] = compound: Cc1nc(Nc2n[nH]c3c2CN(C(=O)N[C@H](CN(C)C)c2ccccc2)C3(C)C)c2sccc2n1
Summary of the method: as §1

dasatinib = compound: Cc1nc(Nc2ncc(C(=O)Nc3c(C)cccc3Cl)s2)cc(N2CCN(CCO)CC2)n1 [dasatinib]
Summary of the method: as §1

[7] = compound: Cc1ncc(-c2ccnc(Nc3ccc(S(C)(=O)=O)cc3)n2)n1C(C)C
Summary of the method: as §1

[8] = compound: Cn1cc(-c2ccc3c(c2)CCN3C(=O)Cc2cccc(C(F)(F)F)c2)c2c(N)ncnc21
Summary of the method: as §1

[9] = compound: Cn1cc(-c2ccc3nnc(C(F)(F)c4ccc5ncccc5c4)n3n2)cn1
Summary of the method: as §1

tipifarnib = compound: Cn1cncc1[C@@](N)(c1ccc(Cl)cc1)c1ccc2c(c1)c(-c1cccc(Cl)c1)cc(=O)n2C [tipifarnib]
Summary of the method: as §1

mubritinib = compound: FC(F)(F)c1ccc(/C=C/c2nc(COc3ccc(CCCCn4ccnn4)cc3)co2)cc1 [mubritinib]
Summary of the method: as §1

Target	log2 fold change [1]	log2 fold change (crizotinib)	log2 fold change [2]	log2 fold change [3]	log2 fold change (duvelisib)	log2 fold change (gandotinib)	log2 fold change (tozasertib)	log2 fold change [4]	log2 fold change (doramapimod)	log2 fold change (ispinesib)	log2 fold change (bafetinib)	log2 fold change [5]	log2 fold change (nilotinib)	log2 fold change [6]	log2 fold change (dasatinib)	log2 fold change [7]	log2 fold change [8]	log2 fold change [9]	log2 fold change (tipifarnib)	log2 fold change (mubritinib)
MAT2A (UniProt P31153)	inactive: 0.009	inactive: 0.067	inactive: 0.026	inactive: -0.038	inactive: 0.007	inactive: 0.023	inactive: -0.029	inactive: -0.048	inactive: -0.023	inactive: 0.029	inactive: -0.074	inactive: -0.057	inactive: 0.003	inactive: -0.014	inactive: 0.091	inactive: -0.014	inactive: -0.009	inactive: 0.047	inactive: 0.06	inactive: 0.035
MBOAT2 (UniProt Q6ZWT7)	inactive: -0.03	inactive: 0.042	inactive: -0.06	inactive: -0.097	inactive: 0.019	inactive: -0.057	inactive: 0.027	inactive: -0.039	inactive: 0.009	inactive: -0.007	inactive: -0.059	inactive: 0.005	inactive: -0.037	inactive: 0.003	inactive: 0.032	inactive: 0.046	inactive: -0.005	inactive: 0.035	inactive: 0	inactive: 0.019
MCMBP (UniProt Q9BTE3)	inactive: 0.049	inactive: -0.163	inactive: 0.042	inactive: 0.057	inactive: 0.04	inactive: -0.134	inactive: 0.033	inactive: 0.11	inactive: 0.056	inactive: -0.023	inactive: 0	inactive: 0	inactive: -0.016	inactive: -0.07	inactive: -0.092	inactive: 0.005	inactive: 0.04	inactive: 0.029	inactive: -0.112	inactive: 0.048
MARS2 (UniProt Q96GW9)	inactive: 0.01	inactive: 0.038	inactive: -0.007	inactive: 0.009	inactive: 0.076	inactive: 0.036	inactive: -0.001	inactive: -0.056	inactive: -0.01	inactive: 0.027	inactive: -0.074	inactive: -0.096	inactive: -0.006	inactive: -0.001	inactive: 0.021	inactive: -0.009	inactive: 0.047	inactive: 0.055	inactive: -0.017	inactive: 0.004
MED13 (UniProt Q9UHV7)	inactive: -0.026	inactive: 0.006	inactive: 0.059	inactive: -0.305	inactive: 0.021	inactive: -0.039	inactive: -0.037	inactive: 0.025	inactive: 0.159	inactive: -0.044	inactive: 0.008	inactive: 0.331	inactive: -0.229	inactive: -0.001	inactive: -0.109	inactive: -0.42	inactive: -0.215	inactive: -0.032	inactive: -0.062	inactive: 0.045
MAX (UniProt P61244)	inactive: 0.043	inactive: 0.115	inactive: -0.036	inactive: 0.022	inactive: -0.006	inactive: 0.128	inactive: -0.019	inactive: -0.042	inactive: -0.022	inactive: -0.032	inactive: -0.036	inactive: -0.029	inactive: 0.059	inactive: -0.06	inactive: 0.051	inactive: 0.032	inactive: -0.001	inactive: 0.022	inactive: 0.011	inactive: 0.063
METTL14 (UniProt Q9HCE5)	inactive: 0.029	inactive: -0.006	inactive: 0.056	inactive: -0.022	inactive: 0.012	inactive: -0.013	inactive: -0.037	inactive: -0.019	inactive: 0.033	inactive: 0.001	inactive: -0.088	inactive: -0.084	inactive: 0.091	inactive: -0.078	inactive: 0.006	inactive: 0.012	inactive: 0.019	inactive: -0.012	inactive: -0.015	inactive: 0.058
MBNL1 isoform 5 (UniProt Q9NR56)	inactive: 0.003	inactive: -0.005	inactive: -0.187	–	–	–	inactive: 0.03	–	inactive: -0.073	inactive: 0.106	inactive: -0.067	–	inactive: -0.034	inactive: -0.005	–	inactive: 0.03	–	inactive: -0.137	–	inactive: -0.024
MFN1 (UniProt Q8IWA4)	inactive: 0.031	inactive: -0.026	inactive: 0.027	inactive: -0.063	–	inactive: 0.025	–	inactive: 0.039	inactive: 0.02	inactive: -0.207	inactive: -0.114	inactive: -0.034	inactive: -0.005	inactive: -0.05	inactive: -0.054	inactive: 0.02	inactive: 0.032	inactive: -0.019	inactive: 0.123	inactive: -0.01
MED16 (UniProt Q9Y2X0)	inactive: -0.04	inactive: -0.072	inactive: -0.071	inactive: 0.06	–	inactive: -0.098	–	inactive: 0.063	inactive: 0.08	inactive: -0.097	inactive: 0.018	inactive: -0.009	inactive: -0.014	inactive: -0.092	inactive: 0.141	inactive: -0.287	inactive: -0.144	inactive: 0.009	inactive: -0.029	inactive: 0.024
MCUR1 (UniProt Q96AQ8)	inactive: 0.041	inactive: 0.082	inactive: 0.1	inactive: 0.044	–	inactive: -0.021	–	inactive: -0.017	inactive: -0.002	inactive: 0.255	inactive: 0	inactive: 0	inactive: 0.015	inactive: 0.015	inactive: -0.037	inactive: -0.004	inactive: 0.031	inactive: -0.091	inactive: -0.028	inactive: 0.044
MASTL (UniProt Q96GX5)	inactive: -0.058	inactive: 0.092	inactive: 0.179	inactive: 0.046	–	–	–	inactive: -0.12	inactive: -0.075	inactive: 0.099	inactive: 0.143	–	inactive: 0.014	inactive: 0.002	inactive: -0.105	inactive: 0.021	inactive: -0.052	inactive: 0.276	–	inactive: -0.093
MED22 (UniProt Q15528)	inactive: 0.013	inactive: -0.082	inactive: 0.027	inactive: 0.027	–	–	–	inactive: 0.049	inactive: 0.027	inactive: -0.098	inactive: -0.137	–	inactive: 0.019	inactive: -0.048	inactive: -0.009	inactive: -0.011	inactive: 0.102	inactive: 0.059	–	inactive: -0.043
ME2 (UniProt P23368)	inactive: -0.027	active: 0.282	inactive: -0.048	inactive: 0.009	–	inactive: -0.016	–	inactive: -0.002	inactive: -0.016	active: 0.334	inactive: -0.012	inactive: -0.087	inactive: 0.138	inactive: 0.029	inactive: -0.052	inactive: -0.015	inactive: -0.076	inactive: 0.001	inactive: 0.107	inactive: -0.074
MED12 isoform 2 (UniProt Q93074)	inactive: -0.088	inactive: -0.088	inactive: 0.207	–	–	inactive: -0.009	–	inactive: 0.048	inactive: 0.095	inactive: -0.117	inactive: -0.112	inactive: 0.044	inactive: -0.038	inactive: 0.068	inactive: -0.24	inactive: -0.058	–	inactive: 0.003	inactive: -0.071	inactive: -0.103
MED7 (UniProt O43513)	inactive: -0.03	inactive: 0.11	inactive: -0.031	inactive: -0.081	–	–	–	inactive: 0.049	inactive: -0.199	inactive: 0.017	inactive: 0.191	–	inactive: -0.029	inactive: -0.041	inactive: -0.063	inactive: 0.094	inactive: -0.05	inactive: 0.069	inactive: 0.271	–
MATR3 (UniProt P43243)	inactive: -0.104	inactive: 0.011	inactive: -0.003	–	inactive: 0.227	inactive: 0.139	inactive: 0.037	inactive: 0.019	inactive: 0.12	inactive: -0.428	inactive: -0.086	inactive: -0.101	inactive: 0.077	inactive: -0.244	inactive: 0.071	inactive: -0.285	–	inactive: 0.136	–	inactive: -0.075
MCEE (UniProt Q96PE7)	inactive: -0.038	–	inactive: 0.085	inactive: -0.073	inactive: 0.026	inactive: -0.182	inactive: -0.049	inactive: -0.043	–	inactive: -0.085	inactive: -0.041	inactive: -0.047	inactive: 0.023	inactive: 0.064	inactive: -0.017	inactive: 0.019	inactive: 0.045	inactive: 0.01	inactive: -0.03	inactive: 0.045

No new results follow: entries from further up.
Target	log2 fold change [1]	log2 fold change (crizotinib)	log2 fold change [2]	log2 fold change [3]	log2 fold change (duvelisib)	log2 fold change (gandotinib)	log2 fold change (tozasertib)	log2 fold change [4]	log2 fold change (doramapimod)	log2 fold change (ispinesib)	log2 fold change (bafetinib)	log2 fold change [5]	log2 fold change (nilotinib)	log2 fold change [6]	log2 fold change (dasatinib)	log2 fold change [7]	log2 fold change [8]	log2 fold change [9]	log2 fold change (tipifarnib)	log2 fold change (mubritinib)
MED22 (UniProt Q15528)	inactive: 0.013	inactive: -0.082	inactive: 0.027	inactive: 0.027	–	–	–	inactive: 0.049	inactive: 0.027	inactive: -0.098	inactive: -0.137	–	inactive: 0.019	inactive: -0.048	inactive: -0.009	inactive: -0.011	inactive: 0.102	inactive: 0.059	–	inactive: -0.043
ME2 (UniProt P23368)	inactive: -0.027	active: 0.282	inactive: -0.048	inactive: 0.009	–	inactive: -0.016	–	inactive: -0.002	inactive: -0.016	active: 0.334	inactive: -0.012	inactive: -0.087	inactive: 0.138	inactive: 0.029	inactive: -0.052	inactive: -0.015	inactive: -0.076	inactive: 0.001	inactive: 0.107	inactive: -0.074
